Assay results taken from publication PMC7819943, “Rice protein-binding microarrays: a tool to detect cis-acting elements near promoter regions in rice”.
This is one part of the list.

What follows are sequences tested against T1, OsSMF1 (Oryza sativa, UniProt Q6ZLB0 1-436) (assay: protein-binding microarray (RPBM); PBS, 2% BSA, 51.3 ng/ul salmon testes DNA, 50 uM zinc acetate, 200 nM TF, 25 C, 1 h; high values mean tight binding). Conditions: protein: recombinant; tags: N-terminal polyhistidine and DsRed monomer fusion (pET32a); chain copies: 2; label: CyDye5-dUTP incorporated in the synthesized complementary strand; 3' TTTTT single-stranded linker to array surface; dsDNA, one strand shown.
T1 sequence: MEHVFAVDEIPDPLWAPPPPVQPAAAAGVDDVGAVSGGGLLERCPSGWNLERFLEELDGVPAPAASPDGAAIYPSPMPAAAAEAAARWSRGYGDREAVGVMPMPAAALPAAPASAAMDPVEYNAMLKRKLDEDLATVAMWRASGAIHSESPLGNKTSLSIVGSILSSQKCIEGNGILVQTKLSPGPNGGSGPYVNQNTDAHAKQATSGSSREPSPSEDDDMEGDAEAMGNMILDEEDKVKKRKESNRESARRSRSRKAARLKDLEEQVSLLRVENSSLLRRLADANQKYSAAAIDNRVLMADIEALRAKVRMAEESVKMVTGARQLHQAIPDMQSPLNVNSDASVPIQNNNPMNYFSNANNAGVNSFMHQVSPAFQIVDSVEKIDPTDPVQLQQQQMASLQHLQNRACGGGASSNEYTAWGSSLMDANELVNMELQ
In short: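 An Axon 4000B scanner gave the binding signal as per-feature fluorescence intensity in arbitrary units. This followed washing of a custom Agilent array that had been incubated for 1 h at 25 °C with 200 nM protein in PBS, 2% BSA, salmon testes DNA and 50 µM zinc acetate. The proteins were transcription factors fused at the N-terminus to polyhistidine and DsRed, expressed in E. coli BL21-CodonPlus and purified on Ni–NTA.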
In the case of “CCACACCAGCACACACGTCTTTTAATAAAACGTGTCGTATCGGAGTCACCTAGTGCAG”, the binding signal is reported as 5130 fluorescence intensity (a.u.).
With “GTGAGAGAAGCCGCCTTGGATGATGTCAACCATGGTGGCGCGGAGTCACCTAGTGCAG” the binding signal was 6930 fluorescence intensity (a.u.).
With “ACTTGTACTTGTGAGGGGTAGAAACGTCATATCGTGTGTGCGGAGTCACCTAGTGCAG” the binding signal was 3460 fluorescence intensity (a.u.).
“AAATAGCAAGAGAACATATGCAGTCATGAGTCATAAGGGACGGAGTCACCTAGTGCAG” was tested, and the binding signal was 4840 fluorescence intensity (a.u.).
With “TTGGGCGAGGTAGAGGCGGCGCCGGTGTCATCACCGTCGTCGGAGTCACCTAGTGCAG” the binding signal was 5140 fluorescence intensity (a.u.).
In the case of “ACCCACCAACCCGGGTGGTTCGTGTCGTGGCATTCATGGCCGGAGTCACCTAGTGCAG”, the binding signal is reported as 7120 fluorescence intensity (a.u.).
“AATCTTCCATCCATCCATATTCAATACACTATACACCGTACGGAGTCACCTAGTGCAG” was tested, and the binding signal was 16500 fluorescence intensity (a.u.).
In the case of “TCCCACACTTGCGACTCCTGCCGCGACGACGACGACGACACGGAGTCACCTAGTGCAG”, the binding signal is reported as 4140 fluorescence intensity (a.u.).
For “AGAATCATCTCCTGCATACATACGTCAACCGTCTCCATCCCGGAGTCACCTAGTGCAG”, the binding signal was 3990 fluorescence intensity (a.u.).
“GATGGTGGAAGAGCAGCCACGCTGGGACACGTGGACGGCCCGGAGTCACCTAGTGCAG” was tested, and the binding signal was 13400 fluorescence intensity (a.u.).
In the case of “CCCCATCAACCGCCGCTGACGCCCCTGCCTCTGAGTCCACCGGAGTCACCTAGTGCAG”, the binding signal is reported as 3740 fluorescence intensity (a.u.).
“CCGTCCTAGAGTTCTTCTACCTCCCCTTCCAAAACTTCCTCGGAGTCACCTAGTGCAG” was tested, and the binding signal was 35800 fluorescence intensity (a.u.).
In the case of “GAGATTATGGTTTCGTGGGCTAGCATGGACAATGAAGACTCGGAGTCACCTAGTGCAG”, the binding signal is reported as 21900 fluorescence intensity (a.u.).
For “ATATATATAACACGGGTATCGGATTTGGATTTGCTTGGTACGGAGTCACCTAGTGCAG”, the binding signal was 37800 fluorescence intensity (a.u.).
In the case of “ACACTTGCAGCAAACACATTGACTATCTTTCCTCAACTGGCGGAGTCACCTAGTGCAG”, the binding signal is reported as 7780 fluorescence intensity (a.u.).
For “AGACCCGGAGACTGTGGAGACGCGACGCGAAATCGATCGACGGAGTCACCTAGTGCAG”, the binding signal was 29500 fluorescence intensity (a.u.).
For “TCCCTACATTCCAGCGCCGTGACACATCGGAGGCCTCTGGCGGAGTCACCTAGTGCAG”, the binding signal was 6480 fluorescence intensity (a.u.).
“CAACTCTCGGGCCCGTCATCAATCGGGCCATGCCATGCCTCGGAGTCACCTAGTGCAG” was tested, and the binding signal was 3710 fluorescence intensity (a.u.).
In the case of “TGAAATACTCCACGTAGGTTGTTACGCCACGAGTAGCGACCGGAGTCACCTAGTGCAG”, the binding signal is reported as 6200 fluorescence intensity (a.u.).
For “CCCACTTGGCAGCCTGCGTTGCCGTGCGGACACGTAGCGACGGAGTCACCTAGTGCAG”, the binding signal was 5780 fluorescence intensity (a.u.).
For “TAGGAGTCTTATTTATTGATGATAAGTGTGGTGTACGTGCCGGAGTCACCTAGTGCAG”, the binding signal was 3870 fluorescence intensity (a.u.).
“TTGTTTATTTAAGGTGTGATTGTATTTGGATCATGTTTTGCGGAGTCACCTAGTGCAG” was tested, and the binding signal was 3710 fluorescence intensity (a.u.).
For “GTGGAGTGCGGTGGACGGAGCGGCGGGGCGGGGCGGTCAGCGGAGTCACCTAGTGCAG”, the binding signal was 6720 fluorescence intensity (a.u.).
With “CACCATCGGCGACGCCAAGACACCACATCATCACCACCAACGGAGTCACCTAGTGCAG” the binding signal was 3160 fluorescence intensity (a.u.).
“ATAAAGCATCCACATCACCATCCAGCAACTTGCATGAAACCGGAGTCACCTAGTGCAG” was tested, and the binding signal was 6670 fluorescence intensity (a.u.).
In the case of “TCTTTAAGTGACCTATGCGTGACGTTGGGAGAATTTAGCCCGGAGTCACCTAGTGCAG”, the binding signal is reported as 5340 fluorescence intensity (a.u.).
With “AGACACAGCACACCCACTCACTCTGCTCACTCTCCCATACCGGAGTCACCTAGTGCAG” the binding signal was 39100 fluorescence intensity (a.u.).
With “TTCAGCGGGTCACAACTCGATTTTGATTTGGCATCCTCTGCGGAGTCACCTAGTGCAG” the binding signal was 3370 fluorescence intensity (a.u.).
“GCCGGTCCATTCTCCGCCCTTCACCGCCTCCGTTGCCGGCCGGAGTCACCTAGTGCAG” was tested, and the binding signal was 3280 fluorescence intensity (a.u.).
With “GGAGCTTGAGCGGGTCAAGCCACACAAGGCGTCACGATCACGGAGTCACCTAGTGCAG” the binding signal was 3300 fluorescence intensity (a.u.).
“CAAGTCCTGTTTGTTCAGTGAACGCGTGGAGGACGAAGCTCGGAGTCACCTAGTGCAG” was tested, and the binding signal was 3200 fluorescence intensity (a.u.).
“CATTTCCAAATTACATGTATGAATCCAACCAAAACTTTTCCGGAGTCACCTAGTGCAG” was tested, and the binding signal was 17200 fluorescence intensity (a.u.).
For “GTTTAATGGGTTGATGTGGCATGCTTACATATAGGTTTTACGGAGTCACCTAGTGCAG”, the binding signal was 5830 fluorescence intensity (a.u.).
“TACCCGCCCCGGAAGTCGTGGCACGCGAGGATGTGGCGCCCGGAGTCACCTAGTGCAG” was tested, and the binding signal was 3140 fluorescence intensity (a.u.).
With “AAATCTCTCTCCACCCTTTCAGCGCGCCACGTGTCCCACACGGAGTCACCTAGTGCAG” the binding signal was 18900 fluorescence intensity (a.u.).
For “GGACGGTTTCGCTGATGTGGCGCCTACGTGGCATCCTAATCGGAGTCACCTAGTGCAG”, the binding signal was 20300 fluorescence intensity (a.u.).
“GAGGAGAGAGAAGAGAAGAGGTCAAGAAGAGAAGCAAGAGCGGAGTCACCTAGTGCAG” was tested, and the binding signal was 24200 fluorescence intensity (a.u.).
For “TAATCATGCGGTTTTGCGGTCATAAGCATGACGAAATCTTCGGAGTCACCTAGTGCAG”, the binding signal was 3700 fluorescence intensity (a.u.).
For “AATACCTAGTCCCATCTGTCATACACACACTGTGTCTTGGCGGAGTCACCTAGTGCAG”, the binding signal was 3900 fluorescence intensity (a.u.).
For “TCGTGTCCTCTCTTCAGCCACACACGCGCCCACCTCGCCGCGGAGTCACCTAGTGCAG”, the binding signal was 3330 fluorescence intensity (a.u.).
In the case of “TTGTGATGGTGGAGCTGAGGAGCCTTCTCTCCAGCATTGTCGGAGTCACCTAGTGCAG”, the binding signal is reported as 3250 fluorescence intensity (a.u.).
With “GTAACTAAAGATACAAAATTATTAGTGTAACCGGAGGCATCGGAGTCACCTAGTGCAG” the binding signal was 34600 fluorescence intensity (a.u.).
